This is one part of the list. Most entries show no effect beyond the scatter of the controls.

Amino acid sequences for entries named in this document (tags omitted). A change or cut given only in a name is not applied to a line headed by its entry.
UniProt Q80U72: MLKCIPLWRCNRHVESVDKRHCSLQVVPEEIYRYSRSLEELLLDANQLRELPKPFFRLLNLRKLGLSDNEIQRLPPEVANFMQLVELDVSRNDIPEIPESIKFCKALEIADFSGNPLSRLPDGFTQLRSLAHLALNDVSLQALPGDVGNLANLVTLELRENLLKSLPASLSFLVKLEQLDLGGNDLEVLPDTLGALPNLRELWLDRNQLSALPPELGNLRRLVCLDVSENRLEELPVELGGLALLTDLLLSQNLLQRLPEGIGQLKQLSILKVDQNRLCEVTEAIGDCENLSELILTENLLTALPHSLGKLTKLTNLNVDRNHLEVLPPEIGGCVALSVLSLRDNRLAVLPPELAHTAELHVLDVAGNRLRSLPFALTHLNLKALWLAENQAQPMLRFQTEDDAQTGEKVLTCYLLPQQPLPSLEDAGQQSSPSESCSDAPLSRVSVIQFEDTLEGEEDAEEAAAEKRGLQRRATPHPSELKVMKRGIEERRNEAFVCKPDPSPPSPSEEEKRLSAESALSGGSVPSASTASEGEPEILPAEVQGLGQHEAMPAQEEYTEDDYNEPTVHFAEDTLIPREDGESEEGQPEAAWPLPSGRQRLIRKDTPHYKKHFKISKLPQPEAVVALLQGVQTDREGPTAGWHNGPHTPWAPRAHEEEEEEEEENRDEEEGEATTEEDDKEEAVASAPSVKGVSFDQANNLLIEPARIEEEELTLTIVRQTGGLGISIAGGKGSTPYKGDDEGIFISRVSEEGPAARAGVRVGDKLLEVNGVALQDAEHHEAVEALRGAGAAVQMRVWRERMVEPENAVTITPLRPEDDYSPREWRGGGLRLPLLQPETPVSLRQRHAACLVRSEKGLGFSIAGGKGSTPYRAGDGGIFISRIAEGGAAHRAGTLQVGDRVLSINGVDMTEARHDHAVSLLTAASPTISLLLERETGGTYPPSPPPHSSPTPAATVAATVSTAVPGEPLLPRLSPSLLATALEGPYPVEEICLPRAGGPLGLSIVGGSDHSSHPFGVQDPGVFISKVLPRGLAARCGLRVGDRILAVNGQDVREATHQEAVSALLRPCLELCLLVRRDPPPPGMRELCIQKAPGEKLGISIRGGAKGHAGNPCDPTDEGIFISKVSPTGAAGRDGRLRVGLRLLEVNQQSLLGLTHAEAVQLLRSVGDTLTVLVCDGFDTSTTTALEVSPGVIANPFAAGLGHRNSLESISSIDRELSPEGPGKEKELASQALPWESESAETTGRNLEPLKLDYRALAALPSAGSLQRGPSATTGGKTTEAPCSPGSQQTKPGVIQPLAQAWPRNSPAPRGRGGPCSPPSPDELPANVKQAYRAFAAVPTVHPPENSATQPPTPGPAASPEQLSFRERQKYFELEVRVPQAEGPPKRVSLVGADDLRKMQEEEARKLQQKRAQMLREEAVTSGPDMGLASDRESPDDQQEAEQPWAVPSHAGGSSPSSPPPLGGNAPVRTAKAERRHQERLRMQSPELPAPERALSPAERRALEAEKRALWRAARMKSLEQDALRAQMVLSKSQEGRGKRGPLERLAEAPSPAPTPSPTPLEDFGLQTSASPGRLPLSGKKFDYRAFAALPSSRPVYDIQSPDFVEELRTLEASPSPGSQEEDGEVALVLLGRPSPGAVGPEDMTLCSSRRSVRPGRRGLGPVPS
UniProt Q7TQC5: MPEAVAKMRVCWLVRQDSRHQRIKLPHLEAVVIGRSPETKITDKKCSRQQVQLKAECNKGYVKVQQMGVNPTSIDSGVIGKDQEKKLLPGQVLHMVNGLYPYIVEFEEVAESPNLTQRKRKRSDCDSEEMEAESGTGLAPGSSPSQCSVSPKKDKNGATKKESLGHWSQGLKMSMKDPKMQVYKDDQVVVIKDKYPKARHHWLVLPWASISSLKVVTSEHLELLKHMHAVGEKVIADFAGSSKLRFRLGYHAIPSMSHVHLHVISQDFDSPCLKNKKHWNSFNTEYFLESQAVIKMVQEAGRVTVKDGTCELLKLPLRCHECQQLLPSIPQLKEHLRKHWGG
UniProt Q7TNB8: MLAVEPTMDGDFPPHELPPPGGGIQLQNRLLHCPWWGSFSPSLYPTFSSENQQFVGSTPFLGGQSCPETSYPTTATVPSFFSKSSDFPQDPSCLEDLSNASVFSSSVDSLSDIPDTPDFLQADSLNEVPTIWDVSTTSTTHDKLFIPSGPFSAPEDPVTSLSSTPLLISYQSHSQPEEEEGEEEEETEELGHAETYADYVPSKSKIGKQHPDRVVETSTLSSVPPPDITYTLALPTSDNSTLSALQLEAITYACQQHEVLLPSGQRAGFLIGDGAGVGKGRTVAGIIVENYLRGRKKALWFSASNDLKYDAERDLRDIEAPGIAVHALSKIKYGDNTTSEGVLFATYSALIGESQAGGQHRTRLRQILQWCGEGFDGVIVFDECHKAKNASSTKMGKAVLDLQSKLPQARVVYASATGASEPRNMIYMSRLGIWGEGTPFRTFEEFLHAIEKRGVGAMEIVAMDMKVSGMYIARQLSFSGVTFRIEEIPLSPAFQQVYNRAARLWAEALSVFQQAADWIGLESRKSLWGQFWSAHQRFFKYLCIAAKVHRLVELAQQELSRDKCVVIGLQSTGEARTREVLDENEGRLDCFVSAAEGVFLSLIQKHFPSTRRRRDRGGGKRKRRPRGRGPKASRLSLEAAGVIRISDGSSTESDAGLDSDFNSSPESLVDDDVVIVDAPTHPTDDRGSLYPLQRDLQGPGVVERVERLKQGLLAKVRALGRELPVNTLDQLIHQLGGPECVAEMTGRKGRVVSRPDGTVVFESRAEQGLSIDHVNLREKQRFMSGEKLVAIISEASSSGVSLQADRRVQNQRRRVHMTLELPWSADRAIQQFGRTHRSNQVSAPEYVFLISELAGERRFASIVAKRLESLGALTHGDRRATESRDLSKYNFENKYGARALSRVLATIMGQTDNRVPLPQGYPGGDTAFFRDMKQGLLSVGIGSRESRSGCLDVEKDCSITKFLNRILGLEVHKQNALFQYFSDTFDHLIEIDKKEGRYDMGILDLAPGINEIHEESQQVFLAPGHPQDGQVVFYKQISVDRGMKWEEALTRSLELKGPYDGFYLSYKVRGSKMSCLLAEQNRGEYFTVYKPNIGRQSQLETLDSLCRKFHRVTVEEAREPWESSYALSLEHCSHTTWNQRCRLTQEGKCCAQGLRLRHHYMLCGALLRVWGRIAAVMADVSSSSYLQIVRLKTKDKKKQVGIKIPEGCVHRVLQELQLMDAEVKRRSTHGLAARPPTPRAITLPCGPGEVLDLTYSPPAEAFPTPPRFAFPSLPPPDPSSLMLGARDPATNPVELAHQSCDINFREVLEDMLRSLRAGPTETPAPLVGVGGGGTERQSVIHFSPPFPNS
UniProt Q80SY5: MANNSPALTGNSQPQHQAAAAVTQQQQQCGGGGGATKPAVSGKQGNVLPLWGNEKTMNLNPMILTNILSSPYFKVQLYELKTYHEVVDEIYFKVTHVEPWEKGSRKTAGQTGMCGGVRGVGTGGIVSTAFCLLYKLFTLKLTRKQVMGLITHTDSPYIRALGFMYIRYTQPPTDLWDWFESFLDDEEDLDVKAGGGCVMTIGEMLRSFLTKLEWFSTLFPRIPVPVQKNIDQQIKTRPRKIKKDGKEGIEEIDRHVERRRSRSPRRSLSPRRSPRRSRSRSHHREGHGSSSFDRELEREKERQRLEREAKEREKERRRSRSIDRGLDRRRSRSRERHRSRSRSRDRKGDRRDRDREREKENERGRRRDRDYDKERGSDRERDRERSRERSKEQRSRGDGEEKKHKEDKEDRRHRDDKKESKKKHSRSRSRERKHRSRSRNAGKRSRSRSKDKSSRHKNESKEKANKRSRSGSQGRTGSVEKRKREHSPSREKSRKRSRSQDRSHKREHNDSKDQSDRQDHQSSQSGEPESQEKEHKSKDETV
UniProt Q7M6Z0: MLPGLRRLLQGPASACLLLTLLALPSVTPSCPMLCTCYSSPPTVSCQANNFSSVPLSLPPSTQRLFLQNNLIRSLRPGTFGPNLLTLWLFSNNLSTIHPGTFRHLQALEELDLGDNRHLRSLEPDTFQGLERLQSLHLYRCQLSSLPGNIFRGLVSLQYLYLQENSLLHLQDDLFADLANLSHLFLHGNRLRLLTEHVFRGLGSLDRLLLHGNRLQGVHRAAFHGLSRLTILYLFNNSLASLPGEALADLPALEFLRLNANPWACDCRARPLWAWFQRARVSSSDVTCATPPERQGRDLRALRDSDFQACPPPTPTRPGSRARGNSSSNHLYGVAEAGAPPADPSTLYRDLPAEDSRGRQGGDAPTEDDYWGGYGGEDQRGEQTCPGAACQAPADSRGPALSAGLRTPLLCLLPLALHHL
UniProt Q6ZQ82: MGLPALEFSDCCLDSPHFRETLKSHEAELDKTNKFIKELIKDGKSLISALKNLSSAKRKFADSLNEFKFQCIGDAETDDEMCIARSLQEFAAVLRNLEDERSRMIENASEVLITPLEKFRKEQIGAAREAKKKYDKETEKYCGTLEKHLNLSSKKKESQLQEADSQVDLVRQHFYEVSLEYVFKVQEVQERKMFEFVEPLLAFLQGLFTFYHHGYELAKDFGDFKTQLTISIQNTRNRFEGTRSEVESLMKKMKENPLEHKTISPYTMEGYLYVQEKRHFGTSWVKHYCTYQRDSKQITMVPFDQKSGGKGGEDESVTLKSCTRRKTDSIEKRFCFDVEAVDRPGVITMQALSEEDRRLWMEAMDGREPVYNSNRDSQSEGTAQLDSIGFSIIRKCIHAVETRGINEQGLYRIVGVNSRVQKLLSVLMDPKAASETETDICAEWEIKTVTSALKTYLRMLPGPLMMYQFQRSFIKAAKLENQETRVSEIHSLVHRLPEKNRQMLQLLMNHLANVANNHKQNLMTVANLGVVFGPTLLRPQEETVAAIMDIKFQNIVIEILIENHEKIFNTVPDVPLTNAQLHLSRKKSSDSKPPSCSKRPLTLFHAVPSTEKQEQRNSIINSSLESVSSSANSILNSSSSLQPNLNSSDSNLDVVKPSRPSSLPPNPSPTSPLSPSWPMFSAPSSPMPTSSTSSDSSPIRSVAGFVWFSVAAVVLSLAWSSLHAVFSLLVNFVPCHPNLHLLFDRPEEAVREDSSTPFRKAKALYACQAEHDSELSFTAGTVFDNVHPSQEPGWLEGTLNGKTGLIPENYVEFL
UniProt Q78J03: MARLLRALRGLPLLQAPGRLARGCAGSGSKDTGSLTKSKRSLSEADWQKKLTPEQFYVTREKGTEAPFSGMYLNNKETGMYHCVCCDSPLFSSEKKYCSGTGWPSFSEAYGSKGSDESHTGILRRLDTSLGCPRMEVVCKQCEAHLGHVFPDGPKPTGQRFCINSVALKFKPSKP
UniProt Q78PG9: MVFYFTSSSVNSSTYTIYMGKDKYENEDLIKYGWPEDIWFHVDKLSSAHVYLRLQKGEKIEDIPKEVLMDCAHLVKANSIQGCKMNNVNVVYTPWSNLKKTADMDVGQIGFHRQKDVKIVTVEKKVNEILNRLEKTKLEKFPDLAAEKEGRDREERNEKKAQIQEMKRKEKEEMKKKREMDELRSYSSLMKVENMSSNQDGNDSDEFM
UniProt Q78IK2: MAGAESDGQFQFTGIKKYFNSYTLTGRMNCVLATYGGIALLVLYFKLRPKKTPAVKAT

Compound in the experiment: CN[C@@H]1C[C@H]2O[C@@](C)([C@@H]1OC)n1c3ccccc3c3c4c(c5c6ccccc6n2c5c31)C(=O)NC4 [staurosporine]
Kind of experiment: log2 fold change of tryptic peptide abundance, ligand vs vehicle (limited proteolysis) (log2 ratio); higher = more trypsin-susceptible (destabilized). The note with it: ligand concentration: 20 uM; sample: mouse liver crude lysate; replicate design: treated separately.
In the case of “UniProt Q80U72 (peptide sequence: AGTLQVGDR, peptide start residue: 892)”, the log2 fold change was -0.178.

Take “UniProt Q7TQC5 (peptide sequence: VQQMGVNPTSIDSGVIGKDQEKK, peptide start residue: 64)”: the log2 fold change is -0.74.

For “UniProt Q7TNB8 (peptide sequence: VVSRPDGTVVFESR, peptide start residue: 751)”, the log2 fold change is -0.463.

Turning to “UniProt Q80SY5 (peptide sequence: EGHGSSSFDRELEREK, peptide start residue: 285)”, the log2 fold change was -0.508.

Turning to “UniProt Q7M6Z0 (peptide sequence: DLPAEDSR, peptide start residue: 350)”, the log2 fold change stood at 0.135.

On to “UniProt Q6ZQ82 (peptide sequence: KEQIGAAREAK, peptide start residue: 121)”, for which the log2 fold change is -0.133.

Regarding “UniProt Q78J03 (peptide sequence: GSDESHTGILR, peptide start residue: 114)”, the log2 fold change is -0.233.

For “UniProt Q78PG9 (peptide sequence: EVLMDCAHLVK, peptide start residue: 66)”, the log2 fold change came to 0.275.

As to “UniProt Q78IK2 (peptide sequence: AGAESDGQFQFTGIKK, peptide start residue: 2)”, the log2 fold change worked out at 0.134.

Source of the values: the supplement of paper PMC12819154, “High-throughput peptide-centric local stability assay extends protein–ligand identification to membrane proteins, tissues and bacteria” (Nature Structural & Molecular Biology, 2025).
